Consider three molecules from doi:10.1101/767202.

Protein sequences, listed by entry. Tags and fused reporters are not part of them.
UniProt P51114: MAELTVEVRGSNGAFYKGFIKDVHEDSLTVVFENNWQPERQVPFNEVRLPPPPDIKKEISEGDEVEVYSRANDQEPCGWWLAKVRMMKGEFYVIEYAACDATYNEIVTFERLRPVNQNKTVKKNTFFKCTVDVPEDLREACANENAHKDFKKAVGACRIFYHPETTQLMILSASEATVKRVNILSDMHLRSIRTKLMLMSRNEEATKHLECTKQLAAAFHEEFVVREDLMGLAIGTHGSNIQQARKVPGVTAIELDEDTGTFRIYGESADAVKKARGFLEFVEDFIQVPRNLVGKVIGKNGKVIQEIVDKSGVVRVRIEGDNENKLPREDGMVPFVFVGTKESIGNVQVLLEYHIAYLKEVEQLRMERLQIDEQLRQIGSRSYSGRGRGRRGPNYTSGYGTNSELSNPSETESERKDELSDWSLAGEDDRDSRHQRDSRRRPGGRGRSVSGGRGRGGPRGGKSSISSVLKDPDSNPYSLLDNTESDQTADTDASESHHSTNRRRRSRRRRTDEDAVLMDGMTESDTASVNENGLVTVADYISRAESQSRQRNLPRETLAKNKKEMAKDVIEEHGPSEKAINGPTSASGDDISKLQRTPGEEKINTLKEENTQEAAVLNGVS

These are yes or no findings as the source states them, for the method shown. In cells and extracts the contact can be indirect. Some entries that bind do so weakly or less than the wild type. For part of these data: Sequences can lack the tags named with a protein.

One assay addresses T1, 3xGFP-Nup85 (UniProt Q9BW27).
T1 sequence: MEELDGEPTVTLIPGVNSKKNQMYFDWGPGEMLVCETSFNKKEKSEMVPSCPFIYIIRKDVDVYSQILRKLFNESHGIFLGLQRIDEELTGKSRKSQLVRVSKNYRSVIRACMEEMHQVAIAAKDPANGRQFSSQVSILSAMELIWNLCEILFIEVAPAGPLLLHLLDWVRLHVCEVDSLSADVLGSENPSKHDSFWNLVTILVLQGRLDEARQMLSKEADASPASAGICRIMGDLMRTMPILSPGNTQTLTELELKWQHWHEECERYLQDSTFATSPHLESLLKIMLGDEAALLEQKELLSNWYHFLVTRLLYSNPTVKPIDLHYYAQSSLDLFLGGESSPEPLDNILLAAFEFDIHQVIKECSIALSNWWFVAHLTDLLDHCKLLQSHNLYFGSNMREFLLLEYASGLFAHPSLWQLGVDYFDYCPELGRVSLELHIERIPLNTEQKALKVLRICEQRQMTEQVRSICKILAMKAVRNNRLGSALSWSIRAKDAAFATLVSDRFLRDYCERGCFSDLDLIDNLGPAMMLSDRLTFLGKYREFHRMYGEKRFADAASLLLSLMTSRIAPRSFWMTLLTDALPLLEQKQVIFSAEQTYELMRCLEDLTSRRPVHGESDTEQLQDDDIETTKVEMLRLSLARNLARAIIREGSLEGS
Briefly: co-IP.

The target in assay [1] is FXR1 (endogenous, HEK293T) (human (endogenous in HEK293T)) (UniProt P51114). Briefly: co-IP.

Regarding “FXR1 (endogenous, HeLa) (from UniProt P51114 1-621)”, the binding result in the assay with 3xGFP-Nup85 is given as “binds”.

B1: Nup133 (endogenous, HEK293T) (protein, UniProt Q8WUM0 1-1156)
chain: MFPAAPSPRTPGTGSRRGPLAGLGPGSTPRTASRKGLPLGSAVSSPVLFSPVGRRSSLSSRGTPTRMFPHHSITESVNYDVKTFGSSLPVKVMEALTLAEVDDQLTINIDEGGWACLVCKEKLIIWKIALSPITKLSVCKELQLPPSDFHWSADLVALSYSSPSGEAHSTQAVAVMVATREGSIRYWPSLAGEDTYTEAFVDSGGDKTYSFLTAVQGGSFILSSSGSQLIRLIPESSGKIHQHILPQGQGMLSGIGRKVSSLFGILSPSSDLTLSSVLWDRERSSFYSLTSSNISKWELDDSSEKHAYSWDINRALKENITDAIWGSESNYEAIKEGVNIRYLDLKQNCDGLVILAAAWHSADNPCLIYYSLITIEDNGCQMSDAVTVEVTQYNPPFQSEDLILCQLTVPNFSNQTAYLYNESAVYVCSTGTGKFSLPQEKIVFNAQGDSVLGAGACGGVPIIFSRNSGLVSITSRENVSILAEDLEGSLASSVAGPNSESMIFETTTKNETIAQEDKIKLLKAAFLQYCRKDLGHAQMVVDELFSSHSDLDSDSELDRAVTQISVDLMDDYPASDPRWAESVPEEAPGFSNTSLIILHQLEDKMKAHSFLMDFIHQVGLFGRLGSFPVRGTPMATRLLLCEHAEKLSAAIVLKNHHSRLSDLVNTAILIALNKREYEIPSNLTPADVFFREVSQVDTICECLLEHEEQVLRDAPMDSIEWAEVVINVNNILKDMLQAASHYRQNRNSLYRREESLEKEPEYVPWTATSGPGGIRTVIIRQHEIVLKVAYPQADSNLRNIVTEQLVALIDCFLDGYVSQLKSVDKSSNRERYDNLEMEYLQKRSDLLSPLLSLGQYLWAASLAEKYCDFDILVQMCEQTDNQSRLQRYMTQFADQNFSDFLFRWYLEKGKRGKLLSQPISQHGQLANFLQAHEHLSWLHEINSQELEKAHATLLGLANMETRYFAKKKTLLGLSKLAALASDFSEDMLQEKIEEMAEQERFLLHQETLPEQLLAEKQLNLSAMPVLTAPQLIGLYICEENRRANEYDFKKALDLLEYIDEEEDININDLKLEILCKALQRDNWSSSDGKDDPIEVSKDSIFVKILQKLLKDGIQLSEYLPEVKDLLQADQLGSLKSNPYFEFVLKANYEYYVQGQI
As for B1, the binding entry in assay [1] is listed as “binds”.

B2: Nup85 (endogenous, HEK293T) (protein, UniProt Q9BW27 1-656)
chain: T1 sequence
Take B2: the binding result in assay [1] was “binds”.
